For the assay, the target named is Fes1ΔRD-GST (yeast (S. cerevisiae)). The assay is described as follows: pull-down; Fes1-GST fusions purified on GST-beads from lysates of fes1Δ yeast grown at 30°C with or without calcofluor white (60 min); eluted with 20 mM glutathione; western blot for Slt2.

Results are given in words; binding and its absence hold for the method and conditions named. Binding seen in cells or lysates may run through a third protein. Binding can be weak; no strength is given.

B1: Slt2 (enzyme, UniProt Q00772 1-484)
chain: MADKIERHTFKVFNQDFSVDKRFQLIKEIGHGAYGIVCSARFAEAAEDTTVAIKKVTNVFSKTLLCKRSLRELKLLRHFRGHKNITCLYDMDIVFYPDGSINGLYLYEELMECDMHQIIKSGQPLTDAHYQSFTYQILCGLKYIHSADVLHRDLKPGNLLVNADCQLKICDFGLARGYSENPVENSQFLTEYVATRWYRAPEIMLSYQGYTKAIDVWSAGCILAEFLGGKPIFKGKDYVNQLNQILQVLGTPPDETLRRIGSKNVQDYIHQLGFIPKVPFVNLYPNANSQALDLLEQMLAFDPQKRITVDEALEHPYLSIWHDPADEPVCSEKFEFSFESVNDMEDLKQMVIQEVQDFRLFVRQPLLEEQRQLQLQQQQQQQQQQQQQQQQPSDVDNGNAAASEENYPKQMATSNSVAPQQESFGIHSQNLPRHDADFPPRPQESMMEMRPATGNTADIPPQNDNGTLLDLEKELEFGLDRKYF
Turning to B1, the binding result was “binds”.

The values above are taken from paper PMC6615629, “Hsp70-nucleotide exchange factor (NEF) Fes1 has non-NEF roles in degradation of gluconeogenic enzymes and cell wall integrity” (PLoS Genetics, 2019).
